Results: the supplement of paper PMC10849652
Some of the results follow.

Amino acid sequences for entries named in this document (tags omitted). A change or cut given only in a name is not applied to a line headed by its entry.
UniProt Q96ES7: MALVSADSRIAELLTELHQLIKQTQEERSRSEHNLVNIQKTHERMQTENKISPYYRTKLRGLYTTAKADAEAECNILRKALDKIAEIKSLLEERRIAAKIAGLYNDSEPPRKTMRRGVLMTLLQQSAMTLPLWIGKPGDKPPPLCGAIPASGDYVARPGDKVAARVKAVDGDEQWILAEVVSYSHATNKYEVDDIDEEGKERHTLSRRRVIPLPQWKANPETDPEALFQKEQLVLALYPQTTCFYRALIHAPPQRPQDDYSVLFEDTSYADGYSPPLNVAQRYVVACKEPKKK
UniProt Q96NB2: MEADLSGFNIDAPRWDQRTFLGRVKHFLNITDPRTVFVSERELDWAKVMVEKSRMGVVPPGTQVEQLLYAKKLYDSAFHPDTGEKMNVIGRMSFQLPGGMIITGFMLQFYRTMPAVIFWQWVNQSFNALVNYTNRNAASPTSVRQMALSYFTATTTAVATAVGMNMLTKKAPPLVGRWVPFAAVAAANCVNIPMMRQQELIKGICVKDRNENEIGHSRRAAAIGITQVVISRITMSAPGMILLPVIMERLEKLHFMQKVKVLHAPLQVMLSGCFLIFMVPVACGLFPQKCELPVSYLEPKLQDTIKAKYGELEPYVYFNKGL
UniProt Q99963: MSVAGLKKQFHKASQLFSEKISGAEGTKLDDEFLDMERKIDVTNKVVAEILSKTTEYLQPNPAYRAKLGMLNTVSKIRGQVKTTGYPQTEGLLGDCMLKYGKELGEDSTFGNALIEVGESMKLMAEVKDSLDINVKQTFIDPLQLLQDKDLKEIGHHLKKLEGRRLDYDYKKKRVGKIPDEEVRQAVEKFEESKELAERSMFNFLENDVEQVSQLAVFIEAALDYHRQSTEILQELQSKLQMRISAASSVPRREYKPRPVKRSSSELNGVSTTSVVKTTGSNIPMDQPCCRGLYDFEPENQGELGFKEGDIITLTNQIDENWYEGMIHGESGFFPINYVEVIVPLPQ
UniProt Q8WUM9: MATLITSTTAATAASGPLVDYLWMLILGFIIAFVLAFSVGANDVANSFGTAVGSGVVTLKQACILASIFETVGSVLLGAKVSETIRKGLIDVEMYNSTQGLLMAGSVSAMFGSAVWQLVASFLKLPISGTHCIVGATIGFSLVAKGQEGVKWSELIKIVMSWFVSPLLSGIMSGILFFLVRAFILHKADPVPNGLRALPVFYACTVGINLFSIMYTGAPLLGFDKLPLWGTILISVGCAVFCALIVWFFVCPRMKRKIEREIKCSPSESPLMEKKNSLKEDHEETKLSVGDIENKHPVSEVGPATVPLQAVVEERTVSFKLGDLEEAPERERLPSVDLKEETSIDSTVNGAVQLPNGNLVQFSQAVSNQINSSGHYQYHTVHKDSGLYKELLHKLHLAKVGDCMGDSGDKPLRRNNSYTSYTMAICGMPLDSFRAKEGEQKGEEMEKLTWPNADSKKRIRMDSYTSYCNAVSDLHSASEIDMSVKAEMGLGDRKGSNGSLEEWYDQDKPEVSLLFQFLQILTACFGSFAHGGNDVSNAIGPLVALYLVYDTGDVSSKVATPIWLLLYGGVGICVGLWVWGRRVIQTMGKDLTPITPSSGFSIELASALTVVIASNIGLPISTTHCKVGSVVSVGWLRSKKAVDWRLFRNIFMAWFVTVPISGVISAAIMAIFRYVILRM
UniProt Q14493, whole entry, looked up: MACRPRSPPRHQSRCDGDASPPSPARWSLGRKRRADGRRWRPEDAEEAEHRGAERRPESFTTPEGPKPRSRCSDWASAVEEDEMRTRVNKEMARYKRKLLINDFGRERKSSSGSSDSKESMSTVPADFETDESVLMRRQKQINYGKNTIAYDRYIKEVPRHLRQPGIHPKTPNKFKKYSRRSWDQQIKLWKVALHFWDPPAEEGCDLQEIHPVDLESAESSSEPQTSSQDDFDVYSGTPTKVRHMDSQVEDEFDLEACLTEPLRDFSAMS
UniProt Q2M3G4: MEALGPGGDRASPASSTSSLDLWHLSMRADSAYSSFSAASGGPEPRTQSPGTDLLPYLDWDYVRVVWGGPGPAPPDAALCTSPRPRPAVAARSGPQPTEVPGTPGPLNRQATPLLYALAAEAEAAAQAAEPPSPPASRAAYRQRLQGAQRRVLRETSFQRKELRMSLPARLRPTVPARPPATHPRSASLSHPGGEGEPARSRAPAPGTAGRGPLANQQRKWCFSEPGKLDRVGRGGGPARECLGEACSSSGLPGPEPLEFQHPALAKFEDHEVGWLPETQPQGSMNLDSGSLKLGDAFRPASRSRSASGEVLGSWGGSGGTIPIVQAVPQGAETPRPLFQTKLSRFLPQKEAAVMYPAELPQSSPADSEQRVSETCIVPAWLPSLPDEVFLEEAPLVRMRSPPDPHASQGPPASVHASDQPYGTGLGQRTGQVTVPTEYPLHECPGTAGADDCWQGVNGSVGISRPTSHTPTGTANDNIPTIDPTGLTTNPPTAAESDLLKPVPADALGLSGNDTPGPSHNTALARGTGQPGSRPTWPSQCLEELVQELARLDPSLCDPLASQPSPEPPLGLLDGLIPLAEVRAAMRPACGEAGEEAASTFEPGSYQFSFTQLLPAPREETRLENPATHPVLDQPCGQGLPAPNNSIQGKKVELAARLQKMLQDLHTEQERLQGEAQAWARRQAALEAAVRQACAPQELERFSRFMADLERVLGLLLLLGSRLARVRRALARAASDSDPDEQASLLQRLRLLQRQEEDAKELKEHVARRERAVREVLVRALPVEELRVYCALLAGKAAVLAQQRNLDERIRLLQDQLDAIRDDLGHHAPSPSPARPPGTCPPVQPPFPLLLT
UniProt O95470: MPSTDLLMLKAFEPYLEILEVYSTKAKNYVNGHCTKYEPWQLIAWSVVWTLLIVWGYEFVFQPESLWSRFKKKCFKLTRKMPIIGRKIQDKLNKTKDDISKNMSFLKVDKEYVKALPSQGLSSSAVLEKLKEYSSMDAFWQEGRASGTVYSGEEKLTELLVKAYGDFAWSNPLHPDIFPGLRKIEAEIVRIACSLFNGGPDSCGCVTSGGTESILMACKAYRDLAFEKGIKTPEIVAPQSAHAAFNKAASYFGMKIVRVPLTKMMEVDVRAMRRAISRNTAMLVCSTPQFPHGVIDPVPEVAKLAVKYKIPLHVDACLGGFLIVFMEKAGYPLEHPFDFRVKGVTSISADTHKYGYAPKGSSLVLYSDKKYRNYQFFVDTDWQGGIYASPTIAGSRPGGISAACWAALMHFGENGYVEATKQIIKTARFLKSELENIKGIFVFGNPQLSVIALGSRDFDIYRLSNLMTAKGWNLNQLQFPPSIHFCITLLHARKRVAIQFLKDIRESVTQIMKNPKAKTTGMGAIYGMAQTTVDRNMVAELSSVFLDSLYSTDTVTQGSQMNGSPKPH
UniProt Q15428: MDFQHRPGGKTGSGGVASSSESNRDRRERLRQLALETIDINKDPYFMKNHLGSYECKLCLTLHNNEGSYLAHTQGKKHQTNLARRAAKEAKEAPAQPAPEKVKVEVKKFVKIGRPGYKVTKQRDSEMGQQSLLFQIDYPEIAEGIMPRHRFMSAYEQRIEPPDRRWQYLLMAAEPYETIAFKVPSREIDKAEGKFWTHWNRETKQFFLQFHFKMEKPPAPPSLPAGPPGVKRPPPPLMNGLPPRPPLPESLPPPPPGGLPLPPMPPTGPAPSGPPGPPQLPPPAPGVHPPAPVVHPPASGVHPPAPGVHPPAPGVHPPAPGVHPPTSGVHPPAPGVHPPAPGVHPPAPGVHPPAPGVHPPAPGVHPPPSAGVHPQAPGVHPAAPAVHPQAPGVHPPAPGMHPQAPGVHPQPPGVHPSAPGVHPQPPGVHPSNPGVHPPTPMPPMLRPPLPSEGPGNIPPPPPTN
UniProt Q8IX90, whole entry, looked up: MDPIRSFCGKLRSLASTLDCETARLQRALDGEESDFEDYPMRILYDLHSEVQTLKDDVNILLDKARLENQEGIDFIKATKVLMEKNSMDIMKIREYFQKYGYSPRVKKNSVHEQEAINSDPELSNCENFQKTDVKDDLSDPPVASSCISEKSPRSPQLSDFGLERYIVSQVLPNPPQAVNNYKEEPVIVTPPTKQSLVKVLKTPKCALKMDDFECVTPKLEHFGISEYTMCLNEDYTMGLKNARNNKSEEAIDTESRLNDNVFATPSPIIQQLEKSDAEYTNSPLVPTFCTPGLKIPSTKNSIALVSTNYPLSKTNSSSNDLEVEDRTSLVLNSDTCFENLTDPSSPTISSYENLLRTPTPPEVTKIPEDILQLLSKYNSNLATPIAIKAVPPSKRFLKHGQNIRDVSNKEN
UniProt Q13435: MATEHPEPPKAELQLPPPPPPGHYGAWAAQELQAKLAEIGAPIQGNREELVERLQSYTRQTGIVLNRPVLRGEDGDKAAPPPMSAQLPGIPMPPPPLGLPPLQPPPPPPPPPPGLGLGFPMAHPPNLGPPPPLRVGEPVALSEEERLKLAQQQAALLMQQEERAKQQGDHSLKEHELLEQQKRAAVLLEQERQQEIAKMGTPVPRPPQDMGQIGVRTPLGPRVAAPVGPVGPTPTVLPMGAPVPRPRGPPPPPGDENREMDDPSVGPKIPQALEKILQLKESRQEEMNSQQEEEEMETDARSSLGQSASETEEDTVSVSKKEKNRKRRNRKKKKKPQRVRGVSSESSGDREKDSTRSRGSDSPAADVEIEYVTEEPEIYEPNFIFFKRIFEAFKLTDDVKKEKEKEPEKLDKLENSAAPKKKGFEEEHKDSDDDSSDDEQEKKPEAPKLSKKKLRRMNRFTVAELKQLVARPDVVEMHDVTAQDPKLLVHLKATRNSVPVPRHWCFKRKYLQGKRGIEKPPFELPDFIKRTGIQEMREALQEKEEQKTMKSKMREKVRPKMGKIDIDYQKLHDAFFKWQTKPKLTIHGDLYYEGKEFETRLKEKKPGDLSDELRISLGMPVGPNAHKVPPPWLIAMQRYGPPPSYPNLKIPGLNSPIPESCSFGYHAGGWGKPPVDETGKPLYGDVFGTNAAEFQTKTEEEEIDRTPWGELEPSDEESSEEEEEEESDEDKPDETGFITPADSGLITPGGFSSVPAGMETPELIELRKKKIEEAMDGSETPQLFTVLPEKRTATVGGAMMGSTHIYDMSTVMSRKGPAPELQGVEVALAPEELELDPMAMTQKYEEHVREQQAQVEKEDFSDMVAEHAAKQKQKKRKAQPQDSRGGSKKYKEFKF
UniProt Q8N6T7, whole entry, looked up: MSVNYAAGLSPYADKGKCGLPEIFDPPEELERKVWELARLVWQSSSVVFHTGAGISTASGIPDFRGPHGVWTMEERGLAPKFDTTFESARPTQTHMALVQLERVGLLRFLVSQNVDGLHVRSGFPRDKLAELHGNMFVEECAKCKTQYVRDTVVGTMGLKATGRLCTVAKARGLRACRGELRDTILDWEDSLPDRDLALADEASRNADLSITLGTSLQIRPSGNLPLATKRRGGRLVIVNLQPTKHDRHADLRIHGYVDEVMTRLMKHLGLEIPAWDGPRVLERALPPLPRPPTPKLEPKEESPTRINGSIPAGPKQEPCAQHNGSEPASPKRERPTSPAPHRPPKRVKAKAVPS
UniProt Q9BWJ5: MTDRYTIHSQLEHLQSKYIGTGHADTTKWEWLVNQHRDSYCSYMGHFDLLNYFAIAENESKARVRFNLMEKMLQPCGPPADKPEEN
UniProt Q96FS4: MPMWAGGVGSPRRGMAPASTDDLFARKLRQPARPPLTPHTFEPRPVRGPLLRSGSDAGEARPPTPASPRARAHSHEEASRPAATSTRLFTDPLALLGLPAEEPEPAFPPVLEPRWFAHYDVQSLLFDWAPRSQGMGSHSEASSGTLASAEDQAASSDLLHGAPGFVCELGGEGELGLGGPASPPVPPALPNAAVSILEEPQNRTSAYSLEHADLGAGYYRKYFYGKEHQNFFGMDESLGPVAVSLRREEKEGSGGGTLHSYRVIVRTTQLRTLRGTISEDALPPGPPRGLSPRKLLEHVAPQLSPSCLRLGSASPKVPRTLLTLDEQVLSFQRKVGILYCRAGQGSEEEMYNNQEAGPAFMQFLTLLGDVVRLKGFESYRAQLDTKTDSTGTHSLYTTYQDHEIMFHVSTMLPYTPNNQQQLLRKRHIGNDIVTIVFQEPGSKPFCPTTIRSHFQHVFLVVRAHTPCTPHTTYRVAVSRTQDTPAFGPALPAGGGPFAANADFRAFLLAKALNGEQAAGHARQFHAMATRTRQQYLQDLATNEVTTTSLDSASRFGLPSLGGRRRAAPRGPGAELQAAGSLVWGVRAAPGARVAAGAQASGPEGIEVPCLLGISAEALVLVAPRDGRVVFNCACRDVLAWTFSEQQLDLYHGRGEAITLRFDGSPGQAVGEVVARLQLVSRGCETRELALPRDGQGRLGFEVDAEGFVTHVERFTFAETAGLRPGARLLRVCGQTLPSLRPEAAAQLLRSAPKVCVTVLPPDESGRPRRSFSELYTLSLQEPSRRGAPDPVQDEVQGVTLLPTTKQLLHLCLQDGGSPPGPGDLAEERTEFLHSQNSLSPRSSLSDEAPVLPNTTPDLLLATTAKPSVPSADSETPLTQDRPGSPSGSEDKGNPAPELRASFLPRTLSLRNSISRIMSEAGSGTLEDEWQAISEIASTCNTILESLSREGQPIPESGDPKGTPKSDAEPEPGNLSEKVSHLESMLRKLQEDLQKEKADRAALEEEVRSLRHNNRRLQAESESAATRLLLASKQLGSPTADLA

How the values were obtained:
Assay in all cases: log2 fold change, soluble protein after heating vs DMSO (PISA); higher = thermal stabilisation; K562 lysate, 10 uM; active = over 0.2 and 3.5 SD of the protein, either way, in both replicates (recomputed)
erlotinib = compound: C#Cc1cccc(Nc2ncnc3cc(OCCOC)c(OCCOC)cc23)c1 [erlotinib]
Procedure, shortened: (§1)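 Log-two fold change in thermal stability relative to solvent controls is reported from duplicates. For each sample, crude K562 extract from dounce-homogenised pellets in PBS pH 7.4 with 1 mM MgCl2, at 1 mg/mL protein, was treated with 10 μM compound for 30 min. Aliquots heated for 3 min across 48°C-58°C were pooled, brought to 0.5% NP-40 at 4°C and cleared at 21,000xg for 90 min. The supernatant was quantified by TMTpro 16plex LC-MS/MS with channel sums equalised.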

[1] = compound: C/C(=N\NC(=O)C1=CC(=CC=C1)S(=O)(=O)N2CCOCC2)/C3=C(C=CC(=C3)Cl)O
Procedure, shortened: as §1

[2] = compound: C1=CC(=CC=C1C2=NC3=C(N2)C=C(C=C3)C(=O)N)OC4=CC=C(C=C4)Cl
Procedure, shortened: as §1

[3] = compound: C1=CC2=C(C=CC(=C2)/C=C\3/C(=O)NC(=NCC4=CC=CS4)S3)N=C1
Procedure, shortened: as §1

[4] = compound: C1=CC2=NC=CN=C2C=C1/C=C/3\C(=O)NC(=O)S3
Procedure, shortened: as §1

[5] = compound: C1=CC=C(C=C1)C2=NC(=C(N2)C3=CC=NC=C3)C4=CC(=C(C=C4)Cl)O
Procedure, shortened: as §1

[6] = compound: C1=CC=C2C(=C1)C3=NNC4=CC=CC(=C43)C2=O
Procedure, shortened: as §1

[7] = compound: C1CCN(C1)C(=O)NC2=CC=CC(=C2)NC3=NC=C(C(=N3)NCCC4=CN=CN4)Br
Procedure, shortened: as §1

[8] = compound: C1CN(CCC1(CC2=CC=C(C=C2)Cl)N)C3=NC=NC4=C3C=CN4
Procedure, shortened: as §1

IRAK-1-4 Inhibitor I = compound: C1COCCN1CCN2C3=CC=CC=C3N=C2NC(=O)C4=CC(=CC=C4)[N+](=O)[O-] [IRAK-1-4 Inhibitor I]
Procedure, shortened: as §1

ibrutinib = compound: C=CC(=O)N1CCC[C@@H](n2nc(-c3ccc(Oc4ccccc4)cc3)c3c(N)ncnc32)C1 [ibrutinib]
Procedure, shortened: as §1

[9] = compound: CC(=O)c1cnc2ccc(-c3cc(Cl)c(O)c(Cl)c3)nc2c1N[C@H]1CC[C@H](CN(C)C)CC1
Procedure, shortened: as §1

ralimetinib = compound: CC(C)(C)Cn1c(N)nc2ccc(-c3[nH]c(C(C)(C)C)nc3-c3ccc(F)cc3)nc21 [ralimetinib]
Procedure, shortened: as §1

[10] = compound: CC(C)(O)CC(=O)NCCn1ccc2ncnc(Nc3ccc(Oc4cccc(C(F)(F)F)c4)c(Cl)c3)c21
Procedure, shortened: as §1

[11] = compound: CC(C)C1=C2N=C(C=C(N2N=C1)NCC3=CC=CC=C3)NCCCCCCN
Procedure, shortened: as §1

[12] = compound: CC1=C(C(CC(=O)N1)C2=CC=C(C=C2)C(F)(F)F)C(=O)NC3=C(C=C4C(=C3)C=NN4)F
Procedure, shortened: as §1

[13] = compound: CC1=C(C2=C(C=C1)C(=O)C3=CC=CC=C3N2CCCN)C
Procedure, shortened: as §1

[14] = compound: CC1=C(C=C(C=C1)NC(=O)C2=CC(=CC=C2)C(C)(C)C#N)NC3=CC4=C(C=C3)N=CN(C4=O)C
Procedure, shortened: as §1

[15] = compound: CC1=C(C=C(C=C1)NC(=O)C2=CC(=CC=C2)N(C)C)NC(=O)C3=CC=C(C=C3)O
Procedure, shortened: as §1

[16] = compound: CC1=CC=C(C=C1)SC2=C3C=C(SC3=CN=C2)C(=O)N
Procedure, shortened: as §1

Measured: log2 fold change

SGF29 (UniProt Q96ES7)
inactive: erlotinib 0.039 | [1] -0.003 | [2] 0.035 | [3] 0.004 | [4] -0.019 | [5] -0.028 | [6] -0.141 | [7] -0.053 | [8] 0.031 | IRAK-1-4 Inhibitor I -0.024 | ibrutinib 0 | [9] -0.018 | ralimetinib 0.004 | [10] -0.004 | [11] -0.008 | [12] -0.007 | [13] 0.033 | [14] 0.015 | [15] 0.041 | [16] -0.026

SFXN2 (UniProt Q96NB2)
inactive: erlotinib 0.04 | [1] -0.099 | [2] -0.008 | [3] 0.01 | [4] -0.053 | [5] 0.037 | [6] -0.077 | [7] -0.046 | [8] 0.026 | IRAK-1-4 Inhibitor I -0.022 | ibrutinib -0.012 | [9] 0.021 | ralimetinib 0.001 | [10] -0.018 | [11] -0.07 | [12] 0.099 | [13] -0.042 | [14] 0.018 | [15] 0.05 | [16] 0.029

SH3GL3 isoform 3 (UniProt Q99963)
inactive: erlotinib -0.023 | [1] -0.014 | [2] -0.002 | [3] -0.054 | [4] -0.053 | [5] -0.108 | [6] -0.133 | [7] 0.054 | [8] -0.06 | IRAK-1-4 Inhibitor I -0.124 | ibrutinib 0.042 | [9] -0.104 | ralimetinib -0.014 | [10] 0.004 | [11] 0.001 | [12] -0.017 | [13] -0.045 | [14] 0.027 | [15] 0.042 | [16] -0.102

SLC20A1 (UniProt Q8WUM9)
inactive: erlotinib 0.032 | [1] 0.059 | [2] 0.089 | [3] -0.097 | [4] 0.005 | [5] 0.02 | [6] 0.085 | [7] 0.069 | [8] 0.214 | IRAK-1-4 Inhibitor I 0.05 | ibrutinib 0.022 | [9] -0.028 | ralimetinib -0.013 | [10] -0.08 | [11] 0.05 | [12] 0.072 | [13] -0.015 | [14] 0.027 | [15] 0.002 | [16] -0.054

SKAP2 (UniProt O75563)
inactive: erlotinib 0.02 | [1] -0.013 | [2] -0.016 | [3] -0.021 | [4] -0.034 | [5] -0.006 | [6] -0.011 | [7] -0.034 | [8] 0.022 | IRAK-1-4 Inhibitor I 0.014 | ibrutinib -0.003 | [9] -0.01 | ralimetinib 0.027 | [10] -0.1 | [11] 0.005 | [12] -0.03 | [13] -0.024 | [14] -0.008 | [15] -0.004 | [16] 0.029

2 entries picked at random from those above, as already listed:
SKAP2 (UniProt O75563)
inactive: erlotinib 0.02 | [1] -0.013 | [2] -0.016 | [3] -0.021 | [4] -0.034 | [5] -0.006 | [6] -0.011 | [7] -0.034 | [8] 0.022 | IRAK-1-4 Inhibitor I 0.014 | ibrutinib -0.003 | [9] -0.01 | ralimetinib 0.027 | [10] -0.1 | [11] 0.005 | [12] -0.03 | [13] -0.024 | [14] -0.008 | [15] -0.004 | [16] 0.029

SFXN2 (UniProt Q96NB2)
inactive: erlotinib 0.04 | [1] -0.099 | [2] -0.008 | [3] 0.01 | [4] -0.053 | [5] 0.037 | [6] -0.077 | [7] -0.046 | [8] 0.026 | IRAK-1-4 Inhibitor I -0.022 | ibrutinib -0.012 | [9] 0.021 | ralimetinib 0.001 | [10] -0.018 | [11] -0.07 | [12] 0.099 | [13] -0.042 | [14] 0.018 | [15] 0.05 | [16] 0.029

(listing goes on)

SFPQ (UniProt P23246)
inactive: erlotinib -0.012 | [1] 0.1 | [2] 0.019 | [3] -0.014 | [4] -0.009 | [5] -0.004 | [6] -0.031 | [7] 0.007 | [8] -0.01 | IRAK-1-4 Inhibitor I -0.006 | ibrutinib 0.007 | [9] -0.006 | ralimetinib -0.005 | [10] 0.007 | [11] -0.008 | [12] -0.008 | [13] 0.006 | [14] -0.008 | [15] 0.005 | [16] 0.007

SLBP (UniProt Q14493)
inactive: erlotinib -0.061 | [1] 0.042 | [2] -0.086 | [3] -0.026 | [4] -0.042 | [5] -0.042 | [6] -0.004 | [7] 0.049 | [8] -0.028 | IRAK-1-4 Inhibitor I -0.029 | ibrutinib 0.034 | [9] 0.028 | ralimetinib 0.046 | [10] 0.063 | [11] -0.006 | [12] 0.027 | [13] 0.047 | [14] -0.025 | [15] -0.007 | [16] 0.016

SHROOM1 (UniProt Q2M3G4)
inactive: erlotinib 0.04 | [1] -0.046 | [2] 0.046 | [3] -0.03 | [4] -0.011 | [5] -0.041 | [6] 0.014 | [7] -0.01 | [8] 0.004 | IRAK-1-4 Inhibitor I 0.028 | ibrutinib -0.039 | [9] 0.043 | ralimetinib -0.022 | [10] -0.095 | [11] -0.053 | [12] -0.012 | [13] 0.025 | [14] -0.047 | [15] 0.052 | [16] -0.103

SGPL1 (UniProt O95470)
inactive: erlotinib -0.017 | [1] -0.112 | [2] -0.093 | [3] -0.062 | [4] -0.02 | [5] -0.003 | [6] -0.05 | [7] -0.051 | [8] -0.008 | IRAK-1-4 Inhibitor I 0.007 | ibrutinib 0.034 | [9] 0.046 | ralimetinib 0.048 | [10] -0.029 | [11] -0.051 | [12] -0.003 | [13] -0.121 | [14] -0.003 | [15] 0.033 | [16] 0.038

SF3A2 (UniProt Q15428)
inactive: erlotinib 0.012 | [1] -0.105 | [2] -0.005 | [3] 0.011 | [4] -0.043 | [5] -0.032 | [6] 0.005 | [7] -0.014 | [8] -0.009 | IRAK-1-4 Inhibitor I 0.017 | ibrutinib 0.001 | [9] 0.005 | ralimetinib 0.022 | [10] 0 | [11] -0.002 | [12] -0.017 | [13] 0.03 | [14] -0.022 | [15] -0.011 | [16] 0.012

SKA3 (UniProt Q8IX90)
inactive: erlotinib 0.018 | [1] -0.081 | [2] 0.02 | [3] -0.01 | [4] -0.052 | [5] -0.022 | [6] 0.001 | [7] -0.02 | [8] 0.042 | IRAK-1-4 Inhibitor I 0.013 | ibrutinib 0.001 | [9] -0.032 | ralimetinib -0.021 | [10] -0.038 | [11] 0.007 | [12] 0.027 | [13] -0.011 | [14] 0.027 | [15] 0.025 | [16] -0.046

SF3B2 (UniProt Q13435)
inactive: erlotinib -0.01 | [1] -0.041 | [2] 0.025 | [3] -0.028 | [4] -0.011 | [5] -0.001 | [6] -0.048 | [7] -0.024 | [8] 0 | IRAK-1-4 Inhibitor I -0.003 | ibrutinib -0.001 | [9] 0.01 | ralimetinib 0 | [10] -0.025 | [11] 0.006 | [12] -0.001 | [13] -0.046 | [14] -0.006 | [15] -0.001 | [16] 0.006

SETMAR (UniProt Q53H47)
inactive: erlotinib 0.066 | [1] 0.076 | [2] 0.068 | [3] -0.024 | [4] 0.005 | [5] -0.019 | [6] -0.075 | [7] -0.066 | [8] 0.008 | IRAK-1-4 Inhibitor I 0.005 | ibrutinib 0.038 | [9] -0.003 | ralimetinib -0.012 | [10] -0.093 | [11] 0.013 | [12] -0.01 | [13] -0.044 | [14] 0.009 | [15] -0.003 | [16] -0.02

SIRT6 (UniProt Q8N6T7)
inactive: erlotinib 0.022 | [1] -0.008 | [2] -0.094 | [3] -0.024 | [4] 0.047 | [5] 0.069 | [6] -0.055 | [7] 0.01 | [8] 0.063 | IRAK-1-4 Inhibitor I 0.089 | ibrutinib -0.05 | [9] -0.027 | ralimetinib -0.066 | [10] -0.161 | [11] 0.015 | [12] -0.043 | [13] -0.022 | [14] 0.132 | [15] 0.356 | [16] 0.244

SF3B5 (UniProt Q9BWJ5)
inactive: erlotinib 0.039 | [1] -0.074 | [2] 0.061 | [3] 0.021 | [4] 0.01 | [5] -0.052 | [6] 0.057 | [7] 0.05 | [8] 0.039 | IRAK-1-4 Inhibitor I -0.036 | ibrutinib 0.027 | [9] 0 | ralimetinib 0.07 | [10] -0.014 | [11] -0.044 | [12] 0.094 | [13] 0.014 | [14] 0.041 | [15] 0.011 | [16] -0.021

SIPA1 (UniProt Q96FS4)
inactive: erlotinib -0.051 | [1] -0.161 | [2] 0.019 | [3] 0.064 | [4] -0.021 | [5] 0.022 | [6] -0.084 | [7] -0.067 | [8] 0.062 | IRAK-1-4 Inhibitor I 0.022 | ibrutinib 0.006 | [9] -0.015 | ralimetinib -0.014 | [10] -0.019 | [11] 0.046 | [12] -0.003 | [13] -0.047 | [14] -0.011 | [15] -0.055 | [16] 0.015
